The list is a part of this screen's results and no random one: its compounds were picked by chemical class. Not every dose and run of a compound is shown. T/C: endpoint of the treated group in % of that of the vehicle group. Where survival is the endpoint, the PubChem record calls one and a half times the control and up active, and a quarter to a half above the control has no call in these data; cut-offs in other NCI protocols can differ. Schedules are NCI's codes, taken here to give the interval after Q, in days (D) or hours (H), and the number of doses after X. Some entries show no survivor count and are marked so; the dose need not have been tolerated.
System: BDF1 mice, B16 melanoma ip, median survival T/C
Assay: NCI In Vivo Anticancer Drug Screen. Data for tumor model B16 Melanoma (intraperitoneal) in B6D2F1 (BDF1) mice
Conditions: T/C endpoint: median survival time, schedule: Q01DX009 (ip), vehicle: saline + alcohol, higher T/C = longer survival
Method in brief: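 Compounds were tested in mice carrying transplantable tumors. Survival or tumor size was recorded, and each value is the treated-group measurement (T) divided by that of the vehicle-treated control group (C).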

## CC1=C[C@H]2O[C@@H]3[C@H](OC(=O)CCl)[C@@H](O)[C@](C)(C2(COC(=O)CCl)CC1)[C@@]31CO1 (stereo not given in full)
dose: 0.75 mg/kg/injection
  T/C: 103 % of control [survivor count not shown]
dose: 1.5 mg/kg/injection
  T/C: 108 % of control [survivor count not shown]
dose: 3.0 mg/kg/injection
  T/C: 114 % of control [survivor count not shown]
dose: 6.0 mg/kg/injection
  T/C: 122 % of control [survivor count not shown]
dose: 12.0 mg/kg/injection
  T/C: 115 % of control [survivor count not shown]

— PubChem BioAssay AID192 (DTP/NCI, 2004)
